PubChem BioAssay AID1508588, Peter MacCallum Cancer Centre, 2020

- Assay: 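Genome-wide search for knock-downs that heighten vemurafenib action in melanoma cells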 (primary screen)
- Cells: human WM266.4 melanoma cells (BRAF V600 mutant)
- Reagent: siRNA pool against human genes, 40 nM
- Time to read-out: 96 h from transfection to read-out
- Challenge: vemurafenib 300 nM (about IC25), added 48 h after transfection, for 48 h; comparison arm got DMSO vehicle only
- Measurement: 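Ratios to non-targeting siRNA for cell gain, counted as DAPI nuclei after minus before drug and averaged over two replicates, and for absorbance-read medium lactate per cell; both binned into fold-change classes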
- Scale: cell gain with vemurafenib: higher = more cell gain than with non-targeting siRNA; lactate per cell with vemurafenib: higher = more lactate made per cell
- Hit rule: 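a knock-down counts as enhancing when its fold-change classes with vehicle and with vemurafenib, taken together, show a stronger drug effect on cell gain or lactate per cell; exact class pairs not stated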
- Calls: active = enhances vemurafenib effect; inactive = no enhancement seen
Here is a random part of about 18,000 reagents tested. In the full data, 790 (4.4%) got an active call. 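Calls rest on a combination of fold-change classes in drug and vehicle arms, not all shown here.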 A number with no mark means an inactive call. The numbers tell different reagents against one gene apart. No sequences are given here.

target gene | reagent no. | cell gain with vemurafenib | lactate per cell with vemurafenib
ACADSB | 1 | 0.28 | 1.54
PLA2G4A | 1 | 0.03 | 1.46
SLC60A2 | 1 | 0.62 | 1.39
P2RY14 | 1 | 0.77 | 0.97
RPL37 | 1 | -0.01 | 0.98
SLC17A3 | 1 | 0.31 | 1.72
VIT | 1 | 0.78 | 0.66
RNF186 | 1 | 0.93 | 0.86
ZNF280B | 1 | 0.48 | 0.77
HARS2 | 1 | 0.8 | 1.31
TNFRSF25 | 1 | 0.64 | 0.79
CIAO1 | 1 | 0.93 | 0.66
TMEM45A | 1 | 0.73 | 0.9
CFAP161 | 1 | 1.03 | 0.49
NHERF2 | 1 | 1.17 | 0.41
GFPT2 | 1 | 0.93 | 0.92
SPMIP5 | 1 | 0.78 | 0.66
CELA2B | 1 | 0.22 | 1.37
PRR25 | 1 | 0.05 | 1.71
POU3F2 | 1 | 0.6 | 0.54
SLC12A7 | 1 | 0.24 | 0.82
SSBP2 | 1 | 0.47 | 0.83
KCNMB3 | 1 | 0.38 | 1.23
TM9SF3 | 1 | 0.12 | 1.91
RCOR2 | 1 | 1.25 | 0.66
ZNF639 | 1 | 0.13 (active) | 0.54
FGB | 1 | 0.61 (active) | 0.17
C6orf58 | 1 | 0.98 | 1.23
RANBP3L | 1 | 0.92 | 0.42
RALYL | 1 | 0.87 | 1.53
TCTN3 | 1 | 0.62 | 0.86
HOXC13 | 1 | 0.37 | 0.7
HTATSF1 | 1 | 0.48 | 1.31
SRA1 | 1 | 0.42 | 1.19
RBFOX3 | 1 | 1.05 | 0.64
RBFOX3 | 2 | 0.89 | 1.06
EPHX1 | 1 | 0.57 | 0.88
LZIC | 1 | 1.23 | 1.04
IP6K3 | 1 | 0.61 | 0.86
CLIC4 | 1 | 0.39 | 1.2
PTGDR | 1 | 0.89 | 0.84
PRKAR1A | 1 | 0.6 | 1.08
VRTN | 1 | 0.7 | 0.34
MRPL23 | 1 | 0.29 | 1.02

Targets above whose gene name begins with Z or z:
target gene | reagent no. | cell gain with vemurafenib | lactate per cell with vemurafenib
ZNF280B | 1 | 0.48 | 0.77
ZNF639 | 1 | 0.13 (active) | 0.54

The list goes on:
target gene | reagent no. | cell gain with vemurafenib | lactate per cell with vemurafenib
GFI1B | 1 | 0.57 | 1.12
TMSB4X | 1 | 1.06 | 1.01
TLK1 | 1 | 0.57 | 0.48
OXT | 1 | 0.46 | 1.1
FLVCR1 | 1 | 0.65 | 1.05
PHLDA3 | 1 | 0.79 | 0.98
ZDHHC2 | 1 | 0.58 | 0.98
ZNF397 | 1 | 0.79 (active) | 0.1
CA12 | 1 | 0.74 | 1.05
CHPF | 1 | 0.71 | 0.68
LCOR | 1 | 0.66 | 1.65
LCOR | 2 | 0.58 | 0.88
REDIC1 | 1 | 0.59 | 0.76
MAGEE1 | 1 | 0.7 | 1.47
EMCN | 1 | 0.87 | 0.54
SAR1B | 1 | 0.49 | 1.12
SHOC1 | 1 | 0.54 | 0.68
FEZF1 | 1 | 0.9 | 0.64
FBXO34 | 1 | 0.96 | 0.73
TMEM176A | 1 | 0.75 | 0.85
KCNG3 | 1 | 0.97 | 1.06
CTU2 | 1 | 0.37 | 0.66
AKAP4 | 1 | 0.96 | 1
NEB | 1 | 0.92 | 0.82
ST8SIA5 | 1 | 0.35 | 2.08
PRMT9 | 1 | 0.41 | 0.88
TESK2 | 1 | 0.23 | 1.12
LRRC4 | 1 | 0.3 | 1.13
LRRC2 | 1 | 0.51 (active) | 0.37
ZNF567 | 1 | 0.19 | 0.72
TMSB4XP8 | 1 | 1.17 | 0.64
MS4A7 | 1 | 0.3 | 1.75
OR10K1 | 1 | 0.78 | 0.77
MAGEA4 | 1 | 0.33 | 1.02
CLN6 | 1 | 0.51 | 0.84
ABCC3 | 1 | 0.53 | 1.08
COL9A1 | 1 | 0.89 | 1.16
TRIL | 1 | 1.06 | 0.76
TBC1D10C | 1 | 0.69 | 1.17
CCDC27 | 1 | 0.89 | 0.52
